Patent publication US20190218283A1
Results are given in words; binding and its absence hold for the method and conditions named. Some entries that bind do so weakly or less than the wild type.

The chains behind the UniProt entries cited, without tags or fusion partners. Where a name states a change or a piece, a line headed by the entry shows the natural chain unless it says otherwise.
UniProt O08689: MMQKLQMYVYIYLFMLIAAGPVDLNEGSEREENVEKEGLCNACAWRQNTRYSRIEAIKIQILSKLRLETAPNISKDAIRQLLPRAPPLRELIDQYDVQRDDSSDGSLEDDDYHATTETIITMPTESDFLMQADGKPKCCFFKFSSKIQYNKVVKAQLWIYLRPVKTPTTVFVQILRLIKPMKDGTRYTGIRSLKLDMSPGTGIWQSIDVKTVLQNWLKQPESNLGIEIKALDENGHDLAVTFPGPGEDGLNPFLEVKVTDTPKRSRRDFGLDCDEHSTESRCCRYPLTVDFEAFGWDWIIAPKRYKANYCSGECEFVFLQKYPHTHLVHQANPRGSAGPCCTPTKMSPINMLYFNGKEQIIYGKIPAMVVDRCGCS

Key:
[1] = target: murine latent myostatin (latent GDF8) (mouse) (UniProt O08689); assay: ForteBio BLI (Table 23)
[2] = target: murine pro-myostatin (proGDF8) (mouse) (UniProt O08689); assay: ForteBio BLI (Table 23)
[3] = target: murine latent myostatin (latent GDF8) (mouse) (UniProt O08689); assay: immunofluorescence on cryosectioned mouse tibialis anterior muscle
[4] = target: murine pro-myostatin (proGDF8) (mouse) (UniProt O08689); assay: as above

Measured: binding

B1: Ab10 (antibody, V domains shown)
VH: EVQLVQSGGGVVQSGRSLRLSCVASGFSFSNYGMHWVRQAPGKGLEWLAFIWYDGSNKWYADSVKGRFTISRDNSKNALYLQMNSLRAEDTAVYYCARDRYSSSWGGGFDYWGQGTVLTVSS
VL: NFMLTQPHSVSESPGRTVTIPCSGRGGSIASDSVQWYQQRPGSAPTTIIYEDNQRPSGVPDRFSGSVDSSSNSASLTISGLRTEDEADYYCQSYDASSLWVFGGKTKLTVLG
binds: all assays above
